From US6903077, “Methods and products for delivering nucleic acids” (University of Vermont and State Agricultural College) come the findings set out here.

Data set [1] has as its target T1, GST-Z1 (RIP60 zinc fingers 1-5) (Homo sapiens) (UniProt Q9BWE0).
T1 sequence: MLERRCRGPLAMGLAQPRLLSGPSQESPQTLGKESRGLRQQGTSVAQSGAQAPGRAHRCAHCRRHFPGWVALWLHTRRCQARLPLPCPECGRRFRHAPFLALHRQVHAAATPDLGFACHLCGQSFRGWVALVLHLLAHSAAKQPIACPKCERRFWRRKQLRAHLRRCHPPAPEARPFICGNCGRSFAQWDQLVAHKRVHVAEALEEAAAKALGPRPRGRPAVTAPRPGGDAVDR
The data set is described as follows: competition with a labelled probe. To be noted: purified recombinant protein, protein details: GST N-terminal.

Data set [2] has as its target T2, GST-Z3 (RIP60 zinc fingers 9-15) (Homo sapiens) (UniProt Q9BWE0).
T2 sequence: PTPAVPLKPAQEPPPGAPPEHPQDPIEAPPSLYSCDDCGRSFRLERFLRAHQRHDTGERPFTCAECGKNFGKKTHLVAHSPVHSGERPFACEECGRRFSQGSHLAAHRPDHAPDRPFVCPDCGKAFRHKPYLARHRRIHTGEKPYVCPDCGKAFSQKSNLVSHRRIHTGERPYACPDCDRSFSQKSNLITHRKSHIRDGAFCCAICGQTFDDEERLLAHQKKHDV
The data set is described as follows: competition with a labelled probe. To be noted: competes at 1000-fold excess; purified recombinant protein; protein details: GST N-terminal.

Data set [3] addresses T3, RIP60 full-length (HA-Z123) (Homo sapiens) (UniProt Q9BWE0).
T3 sequence: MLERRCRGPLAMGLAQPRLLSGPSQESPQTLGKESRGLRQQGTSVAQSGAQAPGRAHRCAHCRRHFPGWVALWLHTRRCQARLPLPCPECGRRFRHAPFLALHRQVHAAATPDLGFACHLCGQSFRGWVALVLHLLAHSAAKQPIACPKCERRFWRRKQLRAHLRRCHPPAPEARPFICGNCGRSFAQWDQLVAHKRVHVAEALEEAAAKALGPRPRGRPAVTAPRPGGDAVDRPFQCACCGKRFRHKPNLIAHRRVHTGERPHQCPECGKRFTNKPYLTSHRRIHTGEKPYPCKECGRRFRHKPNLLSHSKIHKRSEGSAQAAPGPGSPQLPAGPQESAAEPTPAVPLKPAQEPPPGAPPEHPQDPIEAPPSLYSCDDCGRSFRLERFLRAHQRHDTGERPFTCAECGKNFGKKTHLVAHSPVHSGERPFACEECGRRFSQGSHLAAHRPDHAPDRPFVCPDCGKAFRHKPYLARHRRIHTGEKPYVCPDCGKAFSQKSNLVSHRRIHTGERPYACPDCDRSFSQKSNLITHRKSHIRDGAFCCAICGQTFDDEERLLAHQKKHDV
Briefly: competition with a labelled probe. The following applies: no competition at 1000-fold excess; protein in an extract; protein details: HA, nuclear extract of transfected NIH 3T3 cells.

Data set [4] addresses T4, GST-Z2 (RIP60 zinc fingers 6-8 plus part of PRR, GST-Z2-P12) (Homo sapiens) (UniProt Q9BWE0).
T4 sequence: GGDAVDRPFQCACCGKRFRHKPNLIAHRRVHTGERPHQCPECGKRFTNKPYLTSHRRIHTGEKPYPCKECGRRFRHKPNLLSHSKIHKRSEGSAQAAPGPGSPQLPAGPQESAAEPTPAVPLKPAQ
Briefly: SELEX. The following applies: purified recombinant protein, protein details: GST N-terminal.

Data set [5] has as its target T4, GST-Z2 (RIP60 zinc fingers 6-8 plus part of PRR, GST-Z2-P12) (Homo sapiens). The data set is described as follows: competition with a labelled probe. To be noted: no competition at 1000-fold excess; purified recombinant protein; protein details: GST N-terminal.
The target in data set [6] is T5, GST-RIP60 (GST-Z123) (Homo sapiens) (UniProt Q9BWE0).
T5 sequence: T3 sequence
The data set is described as follows: competition with a labelled probe. The following applies: USR competes for binding to DSR; purified recombinant protein; protein details: GST N-terminal.

Data set [7] has as its target T6, GST-Z23 (Homo sapiens) (UniProt Q9BWE0).
T6 sequence: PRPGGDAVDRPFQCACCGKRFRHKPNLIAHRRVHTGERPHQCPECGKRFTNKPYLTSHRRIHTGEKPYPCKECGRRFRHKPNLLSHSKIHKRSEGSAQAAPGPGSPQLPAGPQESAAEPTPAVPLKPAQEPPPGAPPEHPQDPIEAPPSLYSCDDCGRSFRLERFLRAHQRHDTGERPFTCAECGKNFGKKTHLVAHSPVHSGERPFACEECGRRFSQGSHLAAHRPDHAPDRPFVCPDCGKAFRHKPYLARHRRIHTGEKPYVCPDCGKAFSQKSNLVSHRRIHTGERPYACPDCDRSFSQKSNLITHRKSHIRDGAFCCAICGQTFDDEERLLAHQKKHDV
The data set is described as follows: competition with a labelled probe. The following applies: USR competes; purified recombinant protein; protein details: GST N-terminal.

Data set [8] deals with T5, GST-RIP60 (GST-Z123) (Homo sapiens). Briefly: EMSA. The following applies: ZnCl2; purified recombinant protein; protein details: GST N-terminal; label: 32P. Background: Mobility shift assays separate free from complexed probe on a gel.
The target of data set [9] is T6, GST-Z23 (Homo sapiens). The data set is described as follows: EMSA. The following applies: specific; purified recombinant protein; protein details: GST N-terminal; label: 32P.
The target of data set [10] is T7, GST-Z2deltaP (Homo sapiens) (UniProt Q9BWE0).
T7 sequence: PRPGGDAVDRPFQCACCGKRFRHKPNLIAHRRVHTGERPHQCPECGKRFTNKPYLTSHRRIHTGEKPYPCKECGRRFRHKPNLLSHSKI
The data set is described as follows: EMSA. To be noted: specific but weak; no multimers; purified recombinant protein; protein details: GST N-terminal; label: 32P.

The target in data set [11] is T2, GST-Z3 (RIP60 zinc fingers 9-15) (Homo sapiens). Briefly: EMSA. The following applies: non-specific; eliminated by 1000-fold excess of all competitors; purified recombinant protein; protein details: GST N-terminal; label: 32P.
The target of data set [12] is T3, RIP60 full-length (HA-Z123) (Homo sapiens). The data set is described as follows: EMSA. The following applies: protein in an extract; protein details: HA, nuclear extract of transfected NIH 3T3 cells; label: 32P.
Data set [13] deals with T8, RIP60 native from HeLa nuclear extract (Homo sapiens) (UniProt Q9BWE0).
T8 sequence: T3 sequence
The data set is described as follows: EMSA. The following applies: unphosphorylated; purified native protein; label: 32P.

Data set [14] deals with T9, RIP60 phosphorylated by casein kinase II (Homo sapiens) (UniProt Q9BWE0).
T9 sequence: T3 sequence
The data set is described as follows: EMSA. To be noted: less, if any, complex after CKII phosphorylation; purified native protein; protein details: CKII-phosphorylated in vitro; label: 32P.

For some assays here: The comparison behind a weaker result is the experiment's own reference, which may not be listed here. Tags and fusion partners may be left off the protein sequences shown. For some assays here: For at least one entry, the source does not settle the construct or the ends of the probe. For some assays here: No signal at the amounts used counts as a negative. For some assays here: Results from cells or extracts need not show a direct contact.

“CTGTTTTTTTTAGTATTAAGC (double strand) [Py-AT (OCH37/OCH38)]”: the binding result was “binds more weakly” in data set [1] (slight competition at 1000-fold excess), “binds” in data set [2] and “no binding” in data set [3].
As to “TTCTTTTTTCATAAAT (double strand) [Z2 selected 59]”, in data set [4], the selection result is “selected”.
The same measure, in the same setting: to “TGTTTTGATTTTTTAT (double strand) [Z2 selected 57]” belongs “selected”.
Regarding “AATTTACCGTTTCTAT (double strand) [Z2 selected 52]”, the selection result in data set [4] (3 rounds, 16 bp random) is recorded as “selected”.
In the case of “TACTTTATGGTTAAGC (double strand) [Z2 selected 63]”, the selection result in [4] is listed as “selected”.
Consider “CCTTCCTTCTTATTCA (double strand) [Z2 selected 53]”, for which the selection result in [4] was “selected”.
With “GCATAATAAAAAAAATTAGT / ACTAATTTTTTTTATTTATGC [SV-AT (OCH35/OCH36)]”, the binding result is “no binding” in data set [1] (not significantly competing), “no binding” in [5] and “binds” in data set [2].
In the case of “GATGAATTTTTTTTTA (double strand) [Z2 selected 62]”, the selection result in data set [4] is recorded as “selected”.
On to “TACTTTATGGTTAACG (double strand) [Z2 selected 66]”, for which the selection result in [4] is “selected”.
Consider “CTATTACTGTTTTCTG (double strand) [Z2 selected 64]”, for which the selection result in data set [4] is given as “selected”.
For “TCTAATTTTCTTTTTA (double strand) [Z2 selected 56]”, in data set [4], the selection result is on record as “selected”.
On to “GATCTTAACAGTAATAATAAATATCT / GATCAGATATTTATTATTACTGTTAA [USR (OCH39/OCH40)]”, for which the binding result in [6] and in data set [7] was “binds” throughout.
In the case of “GATCCGGGAAGGCGGGCGCTGGGGGCGCTGCGGCGCTGCGCTCCACCT / GATCTAGGTGGAGCGCAGCGCCGCAGCGCCCCCAGCGCCCGCCTTCCCG [IBF (OCH13/OCH14)]”, the binding result was “binds” in data set [2] and “no binding” in data set [3].
Turning to “TTCATTTGATTTTATT (double strand) [Z2 selected 54]”, in data set [4], the selection result is listed as “selected”.
Turning to “TTTTATAATTCCTATT (double strand) [Z2 selected 55]”, the selection result in data set [4] is recorded as “selected”.
“TATTTTATTTATTAAT (double strand) [Z2 selected 58]”: in data set [4], the selection result was “selected”.
Take “TATTATTTTATGTTGA (double strand) [Z2 selected 60]”: the selection result in data set [4] is recorded as “selected”.
On to “TTTTTAAATTTTTTTA (double strand) [Z2 selected 61]”, for which the selection result in data set [4] is given as “selected”.
On to “GATCTTTTATTATTATTATTAGTTCG / GATCCGAACTAATAATAATAATAAAA [DSR (OCH7/OCH8)]”, for which the binding result in data set [8] was “binds”; in data set [9] it was “binds”; in data set [10] it was “binds more weakly”; in data set [11], “binds more weakly”; in [12], “binds”; in data set [13] it was “binds”. In addition, the binding result in data set [14] was “binds more weakly”.
Turning to “TTTTTTTAGTTTCTTA (double strand) [Z2 selected 65]”, in [4], the selection result is given as “selected”.
